# Assay results from publication PMC12595865.
# By UniProt entry, the sequences of proteins in these tests, tags left out.
# UniProt P15090: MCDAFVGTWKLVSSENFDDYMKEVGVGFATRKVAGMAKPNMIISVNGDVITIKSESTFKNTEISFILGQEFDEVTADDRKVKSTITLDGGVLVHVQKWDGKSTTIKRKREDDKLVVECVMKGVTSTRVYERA
# No constants are given. Whether binding was seen depends on the method and setting. Binding seen in cells or lysates may run through a third protein. Some results given as binding are weak or reduced against the parent protein; the word gives no strength. Sequences can lack the tags named with a protein.
# B1: Myc-tagged S100A9 (protein, UniProt P06702 1-114)
# chain: MTCKMSQLERNIETIINTFHQYSVKLGHPDTLNQGEFKELVRKDLQNFLKKENKNEKVIEHIMEDLDTNADKQLSFEEFIMLMARLTWASHEKMHEGDEGPGHHHKPGLGEGTP
# Biological target: Flag-tagged FABP4 (fatty acid-binding protein 4) (UniProt P15090)
# Experiment: co-IP; HEK293T cells co-transfected with Myc-S100A9 or control vector together with Flag-FABP4; extracts immunoprecipitated with anti-Flag or anti-Myc antibody, Western blot with anti-Myc or anti-Flag; IP buffer (Thermo 87787), protein A/G magnetic beads, 4 °C overnight
binder,measurement,value
B1,binding,binds
